Experimental findings from paper PMC12664280, “Integrative transcriptomics and peptidomics approach reveals unexpectedly diverse endogenous secretory peptides in Odorrana grahami frog skin” (BMC Biology, 2025) are described below.

The structures appear in SMILES notation. Values after ≈ are worked out from the molar mass of the structure shown.

In the assay the test system is Candida albicans CCMCC(F) 98001. In words: microbe, parasite or virus in culture. The settings on record: broth microdilution, read-out: minimum inhibitory concentration (MIC), Candida albicans. In kind it is cell-based. How it is done:
Ranatuerin-2P-OG1 synthesis was performed by Royobiotech Co., Ltd. (Shanghai, China) using solid-phase peptide synthesis. The crude peptide was purified by RP-HPLC and its purity was confirmed to exceed 90% via ESI-MS analysis. Antimicrobial assays with various microbial strains were conducted, including gram-positive Staphylococcus aureus ATCC 29213 and its methicillin-resistant variant (MRSA) CIB 8546, Enterococcus faecalis ATCC 29212, gram-negative Pseudomonas aeruginosa ATCC 27853 and Escherichia coli ATCC 25922, and fungal Candida albicans CCMCC(F) 98001. Bacterial cultures were maintained in cation-adjusted Mueller-Hinton broth (MHB) at 35°C for 16-20 h, whereas fungal cultures were grown in Sabouraud dextrose broth (SDB) at 28°C for 48 h.
Background: Dilution methods test growth across graded concentrations, often in twofold steps.

Turning to `C[C@@H]1[C@H](O)[C@@H](C)/C=C/C=C/C=C/C=C/C=C/C=C/C=C/[C@H](O[C@@H]2O[C@H](C)[C@@H](O)[C@H](N)[C@@H]2O)C[C@@H]2O[C@](O)(C[C@@H](O)C[C@@H](O)[C@H](O)CC[C@@H](O)C[C@@H](O)CC(=O)O[C@H]1C)C[C@H](O)[C@H]2C(=O)O` [Amphotericin B, reference compound], the MIC amounted to 2 µg/mL (≈ 2.16 µM).
